In patent publication US20100047253A1:

Assays:
[1] = target: Human IL-13-Mouse IL-13 Helix D (human IL-13 with mouse Helix D); assay: ELISA on secreted IL-13 chimeric proteins; '*' denotes that the binding was weak in the sandwich ELISA
[2] = target: Human IL-13-Mouse IL-13 Helix D (human IL-13 with mouse Helix D); assay: ELISA on secreted IL-13 chimeric proteins

binding [1] | binding [2] | Binder
binds | – | mAb 713 (antibody, V domains shown) VH: EVQLLESGGGLVQPGGSLRLSCAASGFTFSSYAMSWVRQAPGKGLEWVSAFSGSGGSTYYADSVKGRFTISRDNSKNTLYLQMNSLRAEDTAVYYCVQDGLGPYFYNYGMDVWGQGTTVTVSS VL: SYELTQPPSVSVSPGQTASITCSGDKLGDKYTCWFQQKPGQSPVLVIYHDSKRPSGIPERFSGSNSGDTATLTISGTQAMDEADYYCQAWDSSTYVFGTGTKVTVLG
binds | – | mAb 731 (antibody, V domains shown) VH: EVQLLESGGGLVQPGGSLRLSCAASGFTFSSYAMSWVRQAPGKGLEWVSAFSGSGGSTYYADSVKGRFTISRDNSKNTLYLQMNSLRAEDTAVYYCVQDGLGPYFYNYGMDVWGQGTTVTVSS VL: SYELTQPPSVSVSPGQTASITCSGDKLGDKYACWFQQKPGQSPVLVIYHDSKRPSGIPERFSGSNSGDTATLTISGTQAMDEADYYCQAWDSSTYVFGTGTKVTVLG

The remaining lines, values behind:

Binder | binding [1] | binding [2]
mAb 602 (antibody, V domains shown) VH: EVQLVESGGGLVKPGGSLRLSCAASGFTFSNAWMSWVRQAPGKGLEWVGRIRSKIDGGTINYAAPVKGRFTISRDDSKNTLYLQMNSLKTEDTAVYYCATDQVGAYYGDYYGMDVWGQGTTVTVSS VL: SYELTQPPSVSVSPGQTARITCSGDALPEKYAYWYQQKSGQAPVLVIYEDTKRPSGIPERFSGSSSGTMATLTISGAQVEDEADYYCYSTDSSGNHGVFGGGTKLTVLG | – | binds
mAb 623 (antibody, V domains shown) VH: EVQLVESGGGLVKPGGSLRLSCAASGFTFSNAWMSWVRQAPGKGLEWVGRIRSEIDGGTTNYAAPVKGRFTISRDDSKNTLYLQMNSLKTEDTAVYYCATDQVGAYYGDYYGMDVWGQGTTVTVSS VL: SYELTQPPSVSVSPGQTARITCSGDALPEKYAYWYQQKSGQAPVLVIYEDSKRPSGIPERFSGSSSGTMATLTISGAQVEDEADYYCHSTDSSGNHGVFGGGTKLTVLG | – | binds
mAb 643 (antibody, V domains shown) VH: EVQLVESGGGLVKPGGSLRLSCAASGFTFSNAWMSWVRQAPGKGLEWVGRIRSEIDGGTTNYAAPVKGRFTISRDDSKNTLYLQMNSLRTEDTAVYYCATDQVGAYYGDYYGMDVWGQGTTVTVSS VL: SYELTQPPSVSVSPGQTARITCSGDALPEKYAYWYQQKSGQAPVLVIYEDSKRPSGIPERFSGSSSGTMATLTISGAQVEDEADYYCHSTDSSGNHGVFGGGTKLTVLG | – | binds

These are yes or no findings as the source states them, for the method shown. A result given as binding can be weak or reduced; the word gives no strength.
